Patent US20240417457A1
Results are given in words; binding and its absence hold for the method and conditions named. Some entries that bind do so weakly or less than the wild type.

Chains of the proteins cited; added tags and fusions are not shown. Residues count along the entry.
UniProt P15328, residues 25-234: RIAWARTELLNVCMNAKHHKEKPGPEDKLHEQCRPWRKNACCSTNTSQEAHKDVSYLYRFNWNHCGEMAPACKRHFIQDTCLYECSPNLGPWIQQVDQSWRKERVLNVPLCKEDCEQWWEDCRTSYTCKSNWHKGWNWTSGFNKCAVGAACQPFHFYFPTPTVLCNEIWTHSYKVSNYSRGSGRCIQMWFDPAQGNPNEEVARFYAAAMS

Columns and labels:
[1] = molecular target: alpha-folate receptor (FRα) on tumor cells (UniProt P15328); assay: FACS on tumor cells, 10 µg/ml, Alexa488 anti mouse detection
[2] = molecular target: FRα covalently bound to a CM5 sensor chip (UniProt P15328); assay: SPR (Biacore T200), FRα amine-coupled to a CM5 chip; fast dissociation, the binding of MOv18 FAb was substantially nil at time 300 sec

B1: MOv18 Fab (SEQ. ID. NOs: 7-8) (Fab, V domains shown)
VH: QVQLQQSGAELARPGASVKLSCKASDYIFTNYDITWVKQRPGQGLEWIGEIDPRSGKSYYNEKFKGKSTLTADKSSSTAYMELRSLTSEDSAVYFCATMYYYGSSPPMDYWGQGTSVTVSR
VL: DIQMTQTTSSLSASLGDRVTISCRASQDINNFLNWYQQKPDGTVKLLIYYTSRLHSGVPSRFSGSGSGTDYSLTIINLEQEDIAIYFCQQSSTIPRTFGQGTKLEIK
[1]
  binding: binds
[2]
  binding: binds
